Measured values: PubChem BioAssay AID1347076 (National Center for Advancing Translational Sciences (NCATS), 2019)
About 13,000 (3.2%) of roughly 400,000 compounds were called active. Inconclusive results, whose numbers are uncertain, are shown with a selection of clear calls. Calls follow the shape of the dose curve; as a rule, active = well fitted cell-killing curve with a large enough effect; inconclusive = small, poorly fitted or top-dose-only effect, or effect the other way; inactive = flat fitted curve, though single readings scatter. Potencies beside an inconclusive call are fits to weak or partial responses and may not hold up.

Test: qHTS assay for MDR1-selective chemotherapeutics: Primary screen using the drug-selected MDR subline cells KB-V1; also: nearly all actives have a fitted effect of over 60% in size
Conditions: KB-V1 MDR cells viability, CellTiter-Glo, 72 h; series mostly up to 46.1 µM
Summary of the method: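 Cells of the MDR subline KB-V1 are plated, dosed with compound at multiple concentrations, and incubated 72 h at 37 degrees C; CellTiter-Glo is then added and luminescence read after 10 min.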
Potency is read from the fitted curve at half-maximal effect.

SMILES | Potency
CN(Cc1nc2ccccc2c(=O)[nH]1)C(=O)c1cc(-c2ccc(Br)cc2)nc2ccccc12 | active: 14.6 µM
Cc1ccc(C(CCN(Cc2ccccc2)C(=O)c2ccco2)c2ccco2)cc1 (stereo not given) | inconclusive: 29.1 µM [cytotoxic, single point]
CC(=O)c1ccc(NC(=O)C(C)N(C)CC(=O)Nc2ccc(Cl)cc2)cc1 (stereo not given) | inconclusive: 16.4 µM [cytotoxic, partial curve]
O=S(=O)(c1ccccc1)N1CCCCC1CCc1ccccc1 (stereo not given) | inconclusive: 14.6 µM [cytotoxic, single point]
O=c1c2cc3c(cc2[nH]c(=S)n1Cc1ccco1)OCO3 | inconclusive: 18.4 µM [cytotoxic, partial curve]
COC(=O)CCC(=O)OC1(C)C(=O)C2=CN(c3ccccc3)C(c3ccc(OC)cc3)=CC2=C(Br)C1=O (stereo not given) | inactive
O=C(C[n+]1cccc2ccccc21)c1ccc(F)cc1 | inactive
COc1ccc(C2C=C(c3ccc(F)cc3)Nc3nc(-c4ccc(Cl)cc4)nn32)cc1 (stereo not given) | inconclusive: 29.1 µM [cytotoxic, single point]
CN(N=O)c1ccc(/C=C/c2ccccc2)cc1 | inactive
COc1cc2nc(CN3CCN(S(=O)(=O)c4ccc(C)c(C)c4)CC3)[nH]c(=O)c2cc1OC | inconclusive: 8.2 µM [cytotoxic, partial curve]
COc1cccc(Cc2nc3ccccc3nc2SCC(=O)NCCc2ccccc2)c1 | inactive
COc1cc(OC)c(NC(=O)c2ccoc2C)cc1Cl | inconclusive: 23.1 µM [cytotoxic, single point]
CC(=O)c1ccc(NC(=O)c2ccc(S(=O)(=O)N3CCCC3)cc2)cc1 | inconclusive: 18.4 µM [cytotoxic, single point]
COc1ccccc1NC(=O)NCCCN1CCN(c2ccc(F)cc2)CC1 | inactive
CCN(CC)C(=O)C1=C(C)N(CCCN2CCCC2=O)C(=O)C(CC(=O)NCc2cccc3ccccc23)C1 (stereo not given) | inconclusive: 0.0046 µM [cytotoxic, full curve, poor fit]
COC(=O)C1=C(C)NC(C)=C(C(=O)OC)C1c1cn(-c2ccccc2)nc1-c1ccco1 | inconclusive: 14.6 µM [cytotoxic, partial curve]
COc1ccc([N+](=O)[O-])cc1NC(=O)Cc1ccccc1Cl | inconclusive: 16.4 µM [cytotoxic, single point]
O=C(NCc1ccc2c(c1)OCO2)C1CCN(S(=O)(=O)c2ccc(F)cc2)CC1 | inactive
O=C(C[C@H]1C/C=C/CC[C@H](Cc2ccc(F)cc2)C(=O)O[C@H](c2ccccc2)CNC1=O)NCCO | inactive
O=C(Nc1ccc2nc(-c3cccs3)c(-c3cccs3)nc2c1)N1CCOCC1 | active: 16.4 µM
Cc1ccccc1Cn1c(C)c(C(=O)NCC(C)C)sc1=O | inactive
Cc1c(NC(=S)NC(=O)C2CCCCC2)c(=O)n(-c2ccccc2)n1C | inconclusive: 8.2 µM [cytotoxic, partial curve]
O=C(COC(=O)c1c(Cl)ccc(Cl)c1Cl)NC(=O)NCc1ccccc1 | inconclusive: 18.4 µM [cytotoxic, single point]
COC(=O)N/N=C(C)/C=C/c1ccccc1 | inconclusive: 29.1 µM [cytotoxic, single point]

3 structures out of the list, ordered by molecular weight, low to high.
SMILES | Potency
O=c1c2cc3c(cc2[nH]c(=S)n1Cc1ccco1)OCO3 | inconclusive: 18.4 µM [cytotoxic, partial curve]
O=S(=O)(c1ccccc1)N1CCCCC1CCc1ccccc1 (stereo not given) | inconclusive: 14.6 µM [cytotoxic, single point]
COc1cc2nc(CN3CCN(S(=O)(=O)c4ccc(C)c(C)c4)CC3)[nH]c(=O)c2cc1OC | inconclusive: 8.2 µM [cytotoxic, partial curve]

Continued.

SMILES | Potency
COC(=O)[C@@]12C[C@@H](CC(=O)N3CCCCC3)C(=O)N(Cc3ccc4c(c3)OCO4)C1=CCC(C)(C)C2 | inconclusive: 2.31 µM [cytotoxic, full curve]
Cc1cc(C)cc(NC(=O)CSc2nncn2-c2ccccn2)c1 | inactive
Cc1ccc2[nH]c3c(c2c1)CCCC3NC(=O)CCl (stereo not given) | inconclusive: 3.66 µM [cytotoxic, full curve, poor fit]
CCc1ccccc1NC(=O)Cn1c(=O)n(Cc2ccco2)c(=O)c2ccccc21 | inactive
COc1ccc(-c2c(C#N)c(SCC(=O)Nc3cccc(Cl)c3)nc(C)c2C(=O)Nc2ccccc2)cc1OC | inactive
COc1ccc(NC(=O)COc2cc(C)cc(C)c2)cc1S(=O)(=O)N1CCCCC1 | active: 18.4 µM
CC(C)CCN1CCN(Cc2ccc(C(F)(F)F)cc2)CC1CCO (stereo not given) | inconclusive: 11.6 µM [cytotoxic, partial curve, poor fit]
CC(C)CNC(=O)c1ccc(-c2ccc(F)c(F)c2)c2ccoc12 | inactive
COc1cc2c(cc1OC)-c1nnc(-c3cccs3)n1C1(CCCC1)C2 | inconclusive: 5.17 µM [cytotoxic, full curve]
COC(=O)c1cccc(CN2C(=O)C(C)Sc3cc(Cl)ccc32)c1 (stereo not given) | inconclusive: 10.3 µM [cytotoxic, partial curve, poor fit]
Cc1ccc(O)c(CNc2nc3ccccc3[nH]2)c1 | inconclusive: 16.4 µM [cytotoxic, partial curve, poor fit]
COc1cc(OC)cc(C(=O)Nc2cc3c(cc2N2CCCCC2)n(C)c(=O)n3C)c1 | inconclusive: 29.1 µM [rising, single point]
CCc1ccc(CN(C(=O)c2ccco2)C2CCS(=O)(=O)C2)cc1 (stereo not given) | inconclusive: 9.2 µM [cytotoxic, partial curve, poor fit]
COc1ccc(N2CCN(C(=O)c3ccc(S(=O)(=O)N4CCCCCC4)cc3)CC2)cc1 | inconclusive: 29.1 µM [cytotoxic, partial curve, poor fit]
COc1ccc(/C=N/NC(=O)c2cccc([N+](=O)[O-])c2)cc1OC(=O)c1ccccc1 | inconclusive: 29.1 µM [cytotoxic, single point]
COc1ccc(C)cc1-n1nnnc1SCc1nc2ccccc2s1 | inconclusive: 14.6 µM [cytotoxic, partial curve]
Cc1ccc(N2C(=O)CC(c3ccccc3F)C3=C2COC3=O)cc1Cl (stereo not given) | inactive
Fc1ccc(Br)cc1C1C=C(c2ccc(Br)s2)Nc2ncnn21 (stereo not given) | inconclusive: 0.731 µM [cytotoxic, full curve, poor fit]
CCN(CC)C(=O)Cn1c(=O)n(-c2ccc(Cl)c(Cl)c2)c(=O)c2c(C)c(C(=O)N(CC)CC)sc21 | inactive
Cc1cc(NC(=O)COC(=O)CC2CCCC2)c([N+](=O)[O-])cc1C | inconclusive: 13 µM [rising, partial curve, poor fit]
COc1cc(C(=O)NCC2(N(C)C)CCCCC2)ccc1OCc1ccccc1 | inactive
CC1(C)C(=O)NCCN1C(=O)CCCC(=O)O | inconclusive: 10.3 µM [rising, partial curve, poor fit]
CC(C)=CCOc1c2ccoc2c(OCC=C(C)C)c2oc(=O)ccc12 | inactive
Cc1cnnc2ccccc12 | inactive

SMILES | Potency
C=C(C(=O)c1ccccc1)C(C(=C)C(=O)c1ccccc1)c1ccc(OC)cc1 | inconclusive: 16.4 µM [cytotoxic, partial curve, poor fit]
CS(=O)(=O)N1CCc2cc(S(=O)(=O)Nc3ccc4c(c3)OCCO4)ccc21 | active: 20.6 µM
CC(/C=C/C=C/c1ccccc1)=N\NC(=O)c1cccnc1 | inconclusive: 14.6 µM [cytotoxic, single point]
Cc1nn(C)c(Cl)c1NC(=O)OCc1ccc(Cl)cc1Cl | active: 2.59 µM
COc1ccc(NC(=S)NC(NC(=O)C(C)C)C(Cl)(Cl)Cl)c([N+](=O)[O-])c1 (stereo not given) | inactive
O=C(NCCOc1ccccc1)C1CCC(=O)N(C2CCCCCC2)C1 (stereo not given) | inconclusive: 29.1 µM [cytotoxic, single point]
COc1ccc(/C=N\N=C2/SC(CC(=O)O)C(=O)N2c2ccc(O)cc2)cc1 (stereo not given) | inactive
COC(=O)COc1ccc(C2C(C(=O)OC)=C(C)NC3=C2C(=O)c2ccccc23)cc1OC (stereo not given) | inconclusive: 10.3 µM [rising, partial curve]
CCCCN(C)C(=O)c1nc2ccccn2c1CN(C)Cc1csc(C)n1 | inconclusive: 20.6 µM [cytotoxic, single point]
COc1ccc(Nc2oc(-c3ccc(COc4cccc(C)c4)o3)nc2C#N)cc1 | inconclusive: 14.6 µM [cytotoxic, single point]
CCSc1nnc(NC(=O)CSc2nnc(Cc3cccn3C)n2CCc2ccccc2)s1 | active: 8.2 µM
COc1cc(C(O)c2nc(-c3cccc(NC(C)=O)c3)cs2)ccc1F (stereo not given) | inactive
NC(=O)CNC(=O)C1CCCc2c1[nH]c1ccc(Cl)cc21 (stereo not given) | inconclusive: 23.1 µM [cytotoxic, single point]
CC1(c2nnnn2-c2ccc3c(c2)OCCO3)CCC(=O)N1CCOc1ccccc1 (stereo not given) | inconclusive: 20.6 µM [cytotoxic, single point]
CC(C)C(=O)N1CCN(c2ccccc2NC(=S)NC(=O)c2cccs2)CC1 | inactive
Clc1ccc(-c2nnc(COc3ncnc4ccccc34)o2)cc1 | inactive
COC(=O)CC1=C(C(=O)OC)[C@@H](c2ccccc2[N+](=O)[O-])C(C#N)=C(N)O1 | inactive
O=C(NCc1ccccc1)N1CCn2c(nc3ccccc32)C1 | active: 18.4 µM
CC1(C)CC(=O)C2=C(C1)OC(N)=C(C#N)C2c1cc2c(cc1[N+](=O)[O-])OCO2 (stereo not given) | inactive
COC(=O)[C@@]12C[C@@H](CC(=O)NCC34CC5CC(CC(C5)C3)C4)C(=O)N(Cc3ccco3)C1=CCC(C)(C)C2 | active: 14.6 µM
CCOC(=O)c1nn(-c2ccccc2C)c(=O)cc1OCC(=O)N1CCN(c2ccccc2)CC1 | inactive
COc1ccc(OC)c(NC(=O)c2cc(S(=O)(=O)N(C)C)ccc2N2CCCC2)c1 | inconclusive: 18.4 µM [cytotoxic, partial curve, poor fit]
